The amount applied is not stated for every result.
Legend:
T. foetus = assay: In vitro antiprotozoal activity against T. foetus; type: cell-based; conditions: ratio antiprotozoal activity/mutagenicity relative to known compound I
From the text: (§1) Several 5-nitroimidazoles have been tested for in vitro antiprotozoal activity against T. foetus, T. vaginalis, and G. lamblia.

T. vaginalis = assay: In vitro antiprotozoal activity against T. vaginalis; type: cell-based; conditions: ratio antiprotozoal activity/mutagenicity relative to known compound I
From the text: as §1

SMILES: Cn1c([N+](=O)[O-])cnc1COC(N)=O [I, reference compound]
- Efficacy Index T. foetus (T. foetus): 1.0
- Efficacy Index T. vaginalis (T. vaginalis): 1.0
